Assay results reported in US7598382B2, “Aryl substituted imidazoquinolines” (Coley Pharmaceutical Group, Inc., priority 2002, dated 2009).
Some entries share one result that the patent states for a list of compounds.

test system: interferon (α) and tumor necrosis factor (α); assay: Cytokine induction in human cells (in vitro human blood cell system, PBMC); format: cell-based; conditions: compound 30-0.014 μM, incubated 18 to 24 hours, culture supernatant analysed by ELISA or IGEN assay

| SMILES | modulate cytokine biosynthesis by inducing the production of interferon α and/or tumor necrosis factor α |
| --- | --- |
| CCCc1nc2c(N)nc3cc(-c4cccnc4)ccc3c2n1CCCCNC(=O)NC1CCCC1 [Example 383] | inducing the production of interferon α and/or tumor necrosis factor α |
| Cc1cc(C)cc(-c2ccc3nc(N)c4ncn(CC(C)C)c4c3c2)c1 [Example 31] | inducing the production of interferon α and/or tumor necrosis factor α |
| CC(C)Cn1cnc2c(N)nc3ccc(-c4cccc(F)c4)cc3c21 [Example 27] | inducing the production of interferon α and/or tumor necrosis factor α |
| CC(C)Cn1cnc2c(N)nc3ccc(-c4ccc(F)cc4)cc3c21 [Example 28] | inducing the production of interferon α and/or tumor necrosis factor α |
| CC(C)Cn1cnc2c(N)nc3ccc(-c4ccc(-c5ccccc5)cc4)cc3c21 [Example 63] | inducing the production of interferon α and/or tumor necrosis factor α |
| Cc1ccc(-c2ccc3nc(N)c4ncn(CC(C)C)c4c3c2)cc1C [Example 119, 8-(3,4-Dimethylphenyl)-1-(2-methylpropyl)-1H-imidazo[4,5-c]quinolin-4-amine] | inducing the production of interferon α and/or tumor necrosis factor α |
| CC(=O)Nc1cccc(-c2ccc3nc(N)c4ncn(CC(C)C)c4c3c2)c1 [Example 54] | inducing the production of interferon α and/or tumor necrosis factor α |
| C=Cc1ccc(-c2ccc3nc(N)c4ncn(CC(C)C)c4c3c2)cc1 [Example 29] | inducing the production of interferon α and/or tumor necrosis factor α |
| COc1ccc(-c2ccc3nc(N)c4ncn(CC(C)C)c4c3c2)c(OC)c1 [Example 55] | inducing the production of interferon α and/or tumor necrosis factor α |
| CC(C)Cn1cnc2c(N)nc3ccc(-c4cccs4)cc3c21 [Example 21] | inducing the production of interferon α and/or tumor necrosis factor α |
| Cc1ccc(-c2ccc3nc(N)c4ncn(CC(C)C)c4c3c2)cc1 [Example 24] | inducing the production of interferon α and/or tumor necrosis factor α |
| CC(C)Cn1cnc2c(N)nc3ccc(-c4cccc(N)c4)cc3c21 [Example 25] | inducing the production of interferon α and/or tumor necrosis factor α |
| CC(C)Cn1cnc2c(N)nc3ccc(-c4ccc(F)c(Cl)c4)cc3c21 [Example 51] | inducing the production of interferon α and/or tumor necrosis factor α |
| CC(C)Cn1cnc2c(N)nc3ccc(-c4ccccc4F)cc3c21 [Example 26] | inducing the production of interferon α and/or tumor necrosis factor α |
